# Experimental data taken from article doi:10.1101/2021.12.20.473554.
# No constants are given. Whether binding was seen depends on the method and setting. Binding seen in cells or lysates may run through a third protein. Some binding calls cover weakened binding; strength is not graded here. Where a sequence is shown, tags or fusion partners need not be part of it.
# T1: Flag-TSC22D4 (wild type, pcDNA3) (UniProt Q9EQN3)
# T1 sequence: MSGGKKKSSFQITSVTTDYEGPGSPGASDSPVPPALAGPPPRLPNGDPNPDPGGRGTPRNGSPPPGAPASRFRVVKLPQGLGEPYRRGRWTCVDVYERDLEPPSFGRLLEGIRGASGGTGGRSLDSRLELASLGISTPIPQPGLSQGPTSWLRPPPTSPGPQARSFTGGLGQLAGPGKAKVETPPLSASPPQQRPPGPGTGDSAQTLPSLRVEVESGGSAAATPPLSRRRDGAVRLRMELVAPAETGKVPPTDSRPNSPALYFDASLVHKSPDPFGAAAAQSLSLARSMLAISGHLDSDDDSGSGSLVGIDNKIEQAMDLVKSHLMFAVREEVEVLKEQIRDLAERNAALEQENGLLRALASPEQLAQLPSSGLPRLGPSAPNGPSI
# B1: full length myc-TSC22D4 (protein, UniProt Q9EQN3 1-387)
# chain: MSGGKKKSSFQITSVTTDYEGPGSPGASDSPVPPALAGPPPRLPNGDPNPDPGGRGTPRNGSPPPGAPASRFRVVKLPQGLGEPYRRGRWTCVDVYERDLEPPSFGRLLEGIRGASGGTGGRSLDSRLELASLGISTPIPQPGLSQGPTSWLRPPPTSPGPQARSFTGGLGQLAGPGKAKVETPPLSASPPQQRPPGPGTGDSAQTLPSLRVEVESGGSAAATPPLSRRRDGAVRLRMELVAPAETGKVPPTDSRPNSPALYFDASLVHKSPDPFGAAAAQSLSLARSMLAISGHLDSDDDSGSGSLVGIDNKIEQAMDLVKSHLMFAVREEVEVLKEQIRDLAERNAALEQENGLLRALASPEQLAQLPSSGLPRLGPSAPNGPSI
# Target: T1, Flag-TSC22D4 (wild type, pcDNA3)
# Assay: co-IP
binder,measurement,value
B1,binding,binds
